Experimental data as given in US20060018893A1.
These are yes or no findings as the source states them, for the method shown. Binding seen in cells or lysates may run through a third protein. Some binding calls cover weakened binding; strength is not graded here. Sequences can lack the tags named with a protein.

Amino acid sequences for entries named in this document (tags omitted).
UniProt O00459: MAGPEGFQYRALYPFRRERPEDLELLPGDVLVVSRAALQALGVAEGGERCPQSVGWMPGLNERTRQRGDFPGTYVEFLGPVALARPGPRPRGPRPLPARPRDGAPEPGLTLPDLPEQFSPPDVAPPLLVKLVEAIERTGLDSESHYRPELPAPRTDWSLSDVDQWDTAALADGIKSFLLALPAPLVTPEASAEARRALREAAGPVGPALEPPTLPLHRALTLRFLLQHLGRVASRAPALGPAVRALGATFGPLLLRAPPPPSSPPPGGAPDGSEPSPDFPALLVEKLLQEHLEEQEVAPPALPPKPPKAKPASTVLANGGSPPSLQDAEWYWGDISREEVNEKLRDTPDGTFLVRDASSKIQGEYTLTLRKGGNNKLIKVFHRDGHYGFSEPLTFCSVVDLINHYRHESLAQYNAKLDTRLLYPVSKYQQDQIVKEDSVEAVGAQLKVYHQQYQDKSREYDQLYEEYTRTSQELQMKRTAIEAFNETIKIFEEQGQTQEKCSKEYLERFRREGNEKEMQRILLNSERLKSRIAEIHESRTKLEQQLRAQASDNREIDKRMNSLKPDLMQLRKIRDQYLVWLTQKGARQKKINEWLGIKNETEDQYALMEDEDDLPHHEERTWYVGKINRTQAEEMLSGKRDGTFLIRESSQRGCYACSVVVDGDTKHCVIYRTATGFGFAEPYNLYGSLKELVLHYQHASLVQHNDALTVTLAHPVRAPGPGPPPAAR

Key:
[1] = target: p85γ (55 kDa bovine p85 isoform homologous to p55PIK, p55α and p85/AS53) (bovine) (UniProt O46404); test: co-expression in insect cells, glutathione-sepharose pull-down, SDS-PAGE and Coomassie staining
[2] = target: p85β (endogenous, human white blood cells / neutrophil cytosol) (human) (UniProt O00459); test: co-immunoprecipitation from human neutrophil cytosol, Western blot

| binding [1] | binding [2] | Binder |
| --- | --- | --- |
| binds |  | GST-p110δ (glutathione-S-transferase fusion of human p110δ, expressed in insect cells) (enzyme, not shown: a dimerising Fc or GST) MPPGVDCPMEFWTKEENQSVVVDFLLPTGVYLNFPVSRNANLSTIKQLLWHRAQYEPLFHMLSGPEAYVFTCINQTAEQQELEDEQRRLCDVQPFLPVLRLVAREGDRVKKLINSQISLLIGKGLHEFDSLCDPEVNDFRAKMCQFCEEAAARRQQLGWEAWLQYSFPLQLEPSAQTWGPGTLRLPNRALLVNVKFEGSEESFTFQVSTKDVPLALMACALRKKATVFRQPLVEQPEDYTLQVNGRHEYLYGSYPLCQFQYICSCLHSGLTPHLTMVHSSSILAMRDEQSNPAPQVQKPRAKPPPIPAKKPSSVSLWSLEQPFRIELIQGSKVNADERMKLVVQAGLFHGNEMLCKTVSSSEVSVCSEPVWKQRLEFDINICDLPRMARLCFALYAVIEKAKKARSTKKKSKKADCPIAWANLMLFDYKDQLKTGERCLYMWPSVPDEKGELLNPTGTVRSNPNTDSAAALLICLPEVAPHPVYYPALEKILELGRHSECVHVTEEEQLQLREILERRGSGELYEHEKDLVWKLRHEVQEHFPEALARLLLVTKWNKHEDVAQMLYLLCSWPELPVLSALELLDFSFPDCHVGSFAIKSLRKLTDDELFQYLLQLVQVLKYESYLDCELTKFLLDRALANRKIGHFLFWHLRSEMHVPSVALRFGLILEAYCRGRTHHMKVLMKQGEALSKLKALNDFVKLSSQKTPKPQTKELMHLCMRQEAYLEALSHLQSPLDPSTLLAEVCVEQCTFMDSKMKPLWIMYSNEEAGSGGSVGIIFKNGDDLRQDMLTLQMIQLMDVLWKQEGLDLRMTPYGCLPTGDRTGLIEVVLRSDTIANIQLNKSNMAATAAFNKDALLNWLKSKNPGEALDRAIEEFTLSCAGYCVATYVLGIGDRHSDNIMIRESGQLFHIDFGHFLGNFKTKFGINRERVPFILTYDFVHVIQQGKTNNSEKFERFRGYCERAYTILRRHGLLFLHLFALMRAAGLPELSCSKDIQYLKDSLALGKTEEEALKHFRVKFNEALRESWKTKVNWLAHNVSKDNRQ |
|  | binds | p110δ (human, untagged) (enzyme) MPPGVDCPMEFWTKEENQSVVVDFLLPTGVYLNFPVSRNANLSTIKQLLWHRAQYEPLFHMLSGPEAYVFTCINQTAEQQELEDEQRRLCDVQPFLPVLRLVAREGDRVKKLINSQISLLIGKGLHEFDSLCDPEVNDFRAKMCQFCEEAAARRQQLGWEAWLQYSFPLQLEPSAQTWGPGTLRLPNRALLVNVKFEGSEESFTFQVSTKDVPLALMACALRKKATVFRQPLVEQPEDYTLQVNGRHEYLYGSYPLCQFQYICSCLHSGLTPHLTMVHSSSILAMRDEQSNPAPQVQKPRAKPPPIPAKKPSSVSLWSLEQPFRIELIQGSKVNADERMKLVVQAGLFHGNEMLCKTVSSSEVSVCSEPVWKQRLEFDINICDLPRMARLCFALYAVIEKAKKARSTKKKSKKADCPIAWANLMLFDYKDQLKTGERCLYMWPSVPDEKGELLNPTGTVRSNPNTDSAAALLICLPEVAPHPVYYPALEKILELGRHSECVHVTEEEQLQLREILERRGSGELYEHEKDLVWKLRHEVQEHFPEALARLLLVTKWNKHEDVAQMLYLLCSWPELPVLSALELLDFSFPDCHVGSFAIKSLRKLTDDELFQYLLQLVQVLKYESYLDCELTKFLLDRALANRKIGHFLFWHLRSEMHVPSVALRFGLILEAYCRGRTHHMKVLMKQGEALSKLKALNDFVKLSSQKTPKPQTKELMHLCMRQEAYLEALSHLQSPLDPSTLLAEVCVEQCTFMDSKMKPLWIMYSNEEAGSGGSVGIIFKNGDDLRQDMLTLQMIQLMDVLWKQEGLDLRMTPYGCLPTGDRTGLIEVVLRSDTIANIQLNKSNMAATAAFNKDALLNWLKSKNPGEALDRAIEEFTLSCAGYCVATYVLGIGDRHSDNIMIRESGQLFHIDFGHFLGNFKTKFGINRERVPFILTYDFVHVIQQGKTNNSEKFERFRGYCERAYTILRRHGLLFLHLFALMRAAGLPELSCSKDIQYLKDSLALGKTEEEALKHFRVKFNEALRESWKTKVNWLAHNVSKDNRQ |
